Values joined by “and” are separate entries in the source; they are usually repeats but may differ in a detail not shown here. Equal values may be shown once. Read-outs that look alike come from different tables or passages of the source. For at least one compound, name, drawing or mass did not settle the structure. *1 amine or outer side, *2 acyl side, *3 side chain or, on linkers, in order; H or OH if unused. Where a SMILES comes first, the peptide text is derived from it. Bridges are numbered along the chain shown (N, C = ends). [ ]: non-standard residue; d: D form. The star is where a group is joined. Undeca(2Z,4E)dienoyl(10-Me) = CC(C)CCCC/C=C/C=C\C(=O)*; Phg(3,5-Cl2-4-OH) = N[C@H](C(=O)O)c1cc(Cl)c(O)c(Cl)c1; X1 = N=C1NC[C@@H](C[C@@H](N[*:1])C(=O)[*:2])N1; X2 = N=C1NC[C@@H](C[C@H](N[*:1])C(=O)[*:2])N1; d(aThr) = C[C@@H](O)[C@@H](N)C(=O)O; dHpg = N[C@@H](C(=O)O)c1ccc(O)cc1; Hpg = N[C@H](C(=O)O)c1ccc(O)cc1; Cit = NC(=O)NCCC[C@H](N)C(=O)O; aThr = C[C@H](O)[C@H](N)C(=O)O; dOrn = NCCC[C@@H](N)C(=O)O
Molecular target: T1, prolyl endopeptidase derived from Flavobacterium (Elizabethkingia meningoseptica, UniProt P27028)
T1 construct: purchased Seikagaku Kogyo Co
Assay: Prolyl endopeptidase inhibitive activity, Flavobacterium enzyme (fluorometric, Z-Gly-Pro-7-AMC substrate)
Format: biochemical

By UniProt entry, the sequences of proteins in these tests, tags left out. Residues count along the entry.
UniProt P27028, 21-705: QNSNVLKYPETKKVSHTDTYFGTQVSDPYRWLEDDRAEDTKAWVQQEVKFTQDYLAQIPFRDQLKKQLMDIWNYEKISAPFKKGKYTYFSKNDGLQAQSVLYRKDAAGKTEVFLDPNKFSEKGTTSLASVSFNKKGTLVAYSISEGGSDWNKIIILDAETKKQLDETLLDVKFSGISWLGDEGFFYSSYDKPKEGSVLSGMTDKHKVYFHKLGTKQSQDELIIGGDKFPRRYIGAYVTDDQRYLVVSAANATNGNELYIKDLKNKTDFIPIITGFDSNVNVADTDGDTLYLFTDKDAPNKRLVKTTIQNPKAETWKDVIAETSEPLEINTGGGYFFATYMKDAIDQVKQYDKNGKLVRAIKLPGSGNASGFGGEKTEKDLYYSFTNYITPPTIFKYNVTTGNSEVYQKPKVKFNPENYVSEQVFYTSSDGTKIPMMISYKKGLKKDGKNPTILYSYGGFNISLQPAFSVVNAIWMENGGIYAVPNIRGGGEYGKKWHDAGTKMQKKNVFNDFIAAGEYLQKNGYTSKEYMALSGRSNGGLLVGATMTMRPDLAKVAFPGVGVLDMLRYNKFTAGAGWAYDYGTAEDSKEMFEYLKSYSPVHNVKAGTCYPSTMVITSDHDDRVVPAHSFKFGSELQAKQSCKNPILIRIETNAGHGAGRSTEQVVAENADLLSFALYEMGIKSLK

CC(C)CCCC/C=C/C=C\C(=O)N[C@@H](CC(=O)O)C(=O)N[C@@H]1C(=O)N[C@H](c2ccc(O)cc2)C(=O)N[C@H](CCCN)C(=O)N[C@H]([C@@H](C)O)C(=O)N[C@@H](c2ccc(O)cc2)C(=O)N[C@H](c2ccc(O)cc2)C(=O)N[C@@H]([C@H](C)O)C(=O)N[C@@H](CCCNC(N)=O)C(=O)N[C@H](C[C@@H]2CNC(=N)N2)C(=O)N[C@@H](c2ccc(O)cc2)C(=O)N[C@H](CO)C(=O)N[C@@H](c2cc(Cl)c(O)c(Cl)c2)C(=O)NCC(=O)N[C@@H](C[C@@H]2CNC(=N)N2)C(=O)N[C@H](C)C(=O)N[C@@H](c2ccc(O)cc2)C(=O)O[C@@H]1C [Enduracidin A] ({Undeca(2Z,4E)dienoyl(10-Me)}-DT[dHpg][dOrn][d(aThr)][Hpg][dHpg][aThr][Cit][X1][Hpg][dS][Phg(3,5-Cl2-4-OH)]G[X2][dA][Hpg]; ester 2-C)
IC50 (read-out: 50% reaction inhibitive concentration, enzyme from Flavobacterium (0.00085 units/ml), 0.04 mM Z-Gly-Pro-7AMC as substrate): 10.2 µM and 10 µM
IC50 (read-out: IC₅₀ (µM) Flavobacterium, Table 1, enzyme from Flavobacterium): 10 µM

Reference: patent publication EP0556482B1, “Propyl endopeptidase inhibitor” (SNOW BRAND MILK PRODUCTS CO., LTD., priority 1991, dated 1993)
